Earlier results as cited in paper PMC4674063, “Uncovering the Molecular Mechanism of Actions between Pharmaceuticals and Proteins on the AD Network” (PLoS ONE, 2015).

Settings: cited from earlier work

COc1cc2c(cc1OC)C(=O)C(CC1CCN(Cc3ccccc3)CC1)C2 (stereo not shown) [E20, donepezil]
crosses the blood-brain barrier (BBB): cross the blood-brain barrier
